In paper PMC7575552:
Results are given in words; binding and its absence hold for the method and conditions named. In cells and extracts the contact can be indirect. Some entries that bind do so weakly or less than the wild type.

Chains of the proteins cited; added tags and fusions are not shown. Lines headed by an entry give the natural chain unless they say otherwise; changes in a name come on top.
UniProt P63017: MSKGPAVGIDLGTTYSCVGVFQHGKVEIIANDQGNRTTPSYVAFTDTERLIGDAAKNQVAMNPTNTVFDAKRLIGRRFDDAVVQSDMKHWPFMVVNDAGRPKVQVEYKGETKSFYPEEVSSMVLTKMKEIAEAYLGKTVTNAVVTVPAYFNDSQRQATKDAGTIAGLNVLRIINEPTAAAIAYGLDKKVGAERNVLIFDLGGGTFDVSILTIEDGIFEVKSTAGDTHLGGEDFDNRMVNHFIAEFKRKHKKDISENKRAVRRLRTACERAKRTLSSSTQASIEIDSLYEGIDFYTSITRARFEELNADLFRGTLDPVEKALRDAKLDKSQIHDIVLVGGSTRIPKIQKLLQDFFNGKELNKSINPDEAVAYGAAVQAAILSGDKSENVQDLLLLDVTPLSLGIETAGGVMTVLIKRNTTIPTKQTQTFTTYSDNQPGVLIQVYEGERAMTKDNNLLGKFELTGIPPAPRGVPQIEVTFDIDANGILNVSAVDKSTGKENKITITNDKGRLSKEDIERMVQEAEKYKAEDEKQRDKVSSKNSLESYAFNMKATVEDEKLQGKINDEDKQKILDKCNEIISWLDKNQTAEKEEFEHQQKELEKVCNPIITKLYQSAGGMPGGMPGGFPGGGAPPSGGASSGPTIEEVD
UniProt P63018: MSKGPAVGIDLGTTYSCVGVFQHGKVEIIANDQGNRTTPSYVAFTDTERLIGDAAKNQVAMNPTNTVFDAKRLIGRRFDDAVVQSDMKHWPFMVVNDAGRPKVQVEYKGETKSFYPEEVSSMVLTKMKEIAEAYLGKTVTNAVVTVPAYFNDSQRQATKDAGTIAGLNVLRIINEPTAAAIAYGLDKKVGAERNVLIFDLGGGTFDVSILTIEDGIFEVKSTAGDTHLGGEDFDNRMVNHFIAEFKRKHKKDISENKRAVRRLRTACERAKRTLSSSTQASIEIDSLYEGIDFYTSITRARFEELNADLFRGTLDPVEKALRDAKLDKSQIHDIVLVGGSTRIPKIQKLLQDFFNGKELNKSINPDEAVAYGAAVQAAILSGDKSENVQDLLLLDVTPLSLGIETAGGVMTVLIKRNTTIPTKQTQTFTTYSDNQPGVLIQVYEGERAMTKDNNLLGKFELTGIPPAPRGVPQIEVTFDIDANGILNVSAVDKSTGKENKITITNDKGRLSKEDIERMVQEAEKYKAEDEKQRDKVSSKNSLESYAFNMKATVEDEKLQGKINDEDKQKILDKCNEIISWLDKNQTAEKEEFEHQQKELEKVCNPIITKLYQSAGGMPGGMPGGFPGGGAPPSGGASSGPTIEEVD
UniProt Q9WUD1: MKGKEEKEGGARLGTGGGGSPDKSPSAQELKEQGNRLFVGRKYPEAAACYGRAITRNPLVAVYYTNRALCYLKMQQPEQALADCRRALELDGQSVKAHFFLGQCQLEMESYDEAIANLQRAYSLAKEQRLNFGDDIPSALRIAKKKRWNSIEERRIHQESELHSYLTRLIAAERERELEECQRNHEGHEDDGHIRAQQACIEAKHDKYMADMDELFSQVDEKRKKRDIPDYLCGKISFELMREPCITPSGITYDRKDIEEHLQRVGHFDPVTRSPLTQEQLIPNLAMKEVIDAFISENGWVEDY

Legend:
[1] = target: Hsc70, endogenous in mouse heart (mouse (endogenous in heart)) (UniProt P63017); assay: co-IP; mouse heart lysate, mPDE5A/oe mice and littermate controls, with and without MI; Hsc70 as bait, detection with CHIP and Hsc70 antibodies
[2] = target: Hsc70, endogenous in neonatal rat cardiomyocytes (rat (endogenous in neonatal rat cardiomyocytes)) (UniProt P63018); assay: co-IP; lysate of neonatal rat cardiomyocytes expressing Myc-tagged WT, S20E or S20A CHIP, with or without simulated ischemia; Hsc70 as bait, Myc-CHIP detected
[3] = target: Myc-tagged CHIP (carboxyl terminus of Hsc70-interacting protein), expressed in HEK293 cells (UniProt Q9WUD1); assay: co-IP; Myc-tagged CHIP expressed in HEK293 cells as bait; PKG1α detected by blot; three bead washes

Q: With “CHIP, endogenous in mouse heart (from UniProt Q9WUD1 1-304)” as the molecule, how does the binding [1] read?
A: The binding was “binds”.

Q: Which binding [2] does the source give for “Myc-tagged CHIP WT, adenovirus-expressed in neonatal rat cardiomyocytes (from UniProt Q9WUD1 1-304)” here?
A: The binding was “binds”.

Q: Which binding [2] does the source give for “Myc-tagged CHIP S20E, adenovirus-expressed in neonatal rat cardiomyocytes (from UniProt Q9WUD1 1-304)” here?
A: The binding was “binds”.

B1: Protein kinase G 1 alpha (PKG1α), in HEK293 cells (enzyme, UniProt Q13976 1-671)
chain: MSELEEDFAKILMLKEERIKELEKRLSEKEEEIQELKRKLHKCQSVLPVPSTHIGPRTTRAQGISAEPQTYRSFHDLRQAFRKFTKSERSKDLIKEAILDNDFMKNLELSQIQEIVDCMYPVEYGKDSCIIKEGDVGSLVYVMEDGKVEVTKEGVKLCTMGPGKVFGELAILYNCTRTATVKTLVNVKLWAIDRQCFQTIMMRTGLIKHTEYMEFLKSVPTFQSLPEEILSKLADVLEETHYENGEYIIRQGARGDTFFIISKGTVNVTREDSPSEDPVFLRTLGKGDWFGEKALQGEDVRTANVIAAEAVTCLVIDRDSFKHLIGGLDDVSNKAYEDAEAKAKYEAEAAFFANLKLSDFNIIDTLGVGGFGRVELVQLKSEESKTFAMKILKKRHIVDTRQQEHIRSEKQIMQGAHSDFIVRLYRTFKDSKYLYMLMEACLGGELWTILRDRGSFEDSTTRFYTACVVEAFAYLHSKGIIYRDLKPENLILDHRGYAKLVDFGFAKKIGFGKKTWTFCGTPEYVAPEIILNKGHDISADYWSLGILMYELLTGSPPFSGPDPMKTYNIILRGIDMIEFPKKIAKNAANLIKKLCRDNPSERLGNLKNGVKDIQKHKWFEGFNWEGLRKGTLTPPIIPSVASPTDTSNFDSFPEDNDEPPPDDNSGWDIDF
Q: For B1, which binding [3] is on record?
A: The binding was “binds”.
